Results as given in patent publication US20190079079A1, “3-D TISSUE CULTURE BASED METHOD TO ASSESS MITOCHONDRIAL IMPAIRMENT” (INSPHERO AG, priority 2016, published 2019).

Tests used:
[1] = test system: 3D primary human hepatocytes microtissues (IPHH_02); assay: Seahorse XF Analyzer measurement of spare respiratory capacity (microtissue-specific respiration rate, MTSRR) after 48 h compound exposure
[2] = from Gustafsson et al; used to calculate MOS; cited from earlier work

For `CCCCc1oc2ccccc2c1C(=O)c1cc(I)c(OCCN(CC)CC)c(I)c1` [Amiodarone], the Mitochondrial toxicity risk ([1]; High: IC50_MTSRR<0.75×IC50_CV/CYT, Low: IC50_MTSRR<IC50_CV/CYT and ≥0.75×IC50_CV/CYT, No: IC50_MTSRR≥IC50_CV/CYT (CV/CYT by CellTiter-Glo)) was “high Mitotoxic risk”, the “Predicted toxicity from MOS” value ([1]; MOS below 30 = predicted toxic) was “toxic compound” and the IC50 ([1]; read-out: IC50_MTSRR (inhibition of spare respiratory capacity), 3D primary human hepatocyte microtissues, 48 h incubation, sigmoidal dose-response curve (variable slope) of Respiratory Spare Capacity values) was 25.3 µM. The Cmax [2] was 5.3 µM.
